{"source": "PubChem BioAssay AID1259308 (NCATS, 2017)", "test": "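Genes whose loss raises luciferase production in HEK293 cells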 (primary screen)", "cell system": "human HEK293 embryonic kidney cells stably expressing firefly luciferase (HEK-CMV-Luc2-Hygro)", "knock-down reagent": "single siRNA against human genes, 0.8 pmol siRNA per well", "timing": "72 h", "detection": "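Luciferase light (ONE-Glo) measured on one replicate plate set and viability (CellTiter-Glo) on the other, scaled to a negative control siRNA, with robust z-scores and luciferase per cell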", "reading the numbers": "total luciferase, z-score and total luciferase, % of control: higher = more reporter protein produced", "hit rule": "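An siRNA counts as active if its total luciferase robust z-score exceeds 3; genes with two or more such siRNAs out of three were retested with fresh siRNAs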", "meaning of the calls": "active = raised luciferase; inactive = no rise", "note": "The deposit covers about 59,000 reagents; this is an unselected part. About 1,510 of all reagents (2.6%) were called active. 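Calls use total luciferase alone and ignore viability, so some active siRNAs may act by altering cell number.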 Further read-outs or replicates are left out here."}
{"Gene": "TMEM89", "PubChem SID": "SID160725411", "total luciferase, z-score": 1.36, "total luciferase, % of control": 109, "activity call": "inactive"}
{"Gene": "TMEM89", "PubChem SID": "SID160725412", "total luciferase, z-score": 3.29, "total luciferase, % of control": 147, "activity call": "active"}
{"Gene": "TMEM89", "PubChem SID": "SID160733405", "total luciferase, z-score": 0.0694, "total luciferase, % of control": 83.3, "activity call": "inactive"}
{"Gene": "ARHGAP40", "PubChem SID": "SID160764728", "total luciferase, z-score": 1.26, "total luciferase, % of control": 107, "activity call": "inactive"}
{"Gene": "ARHGAP40", "PubChem SID": "SID160764729", "total luciferase, z-score": 1.26, "total luciferase, % of control": 107, "activity call": "inactive"}
{"Gene": "ARHGAP40", "PubChem SID": "SID160764730", "total luciferase, z-score": -0.362, "total luciferase, % of control": 74.7, "activity call": "inactive"}
{"Gene": "PLAUR", "PubChem SID": "SID160714433", "total luciferase, z-score": -0.407, "total luciferase, % of control": 73.8, "activity call": "inactive"}
{"Gene": "PLAUR", "PubChem SID": "SID160714434", "total luciferase, z-score": 0.551, "total luciferase, % of control": 92.8, "activity call": "inactive"}
{"Gene": "PLAUR", "PubChem SID": "SID160714435", "total luciferase, z-score": 2.94, "total luciferase, % of control": 140, "activity call": "inactive"}
{"Gene": "FOXQ1", "PubChem SID": "SID160754651", "total luciferase, z-score": 0.269, "total luciferase, % of control": 87.2, "activity call": "inactive"}
{"Gene": "FOXQ1", "PubChem SID": "SID160754652", "total luciferase, z-score": -0.424, "total luciferase, % of control": 73.5, "activity call": "inactive"}
{"Gene": "FOXQ1", "PubChem SID": "SID160754653", "total luciferase, z-score": 1, "total luciferase, % of control": 102, "activity call": "inactive"}
{"Gene": "APC2", "PubChem SID": "SID160728112", "total luciferase, z-score": 2.62, "total luciferase, % of control": 134, "activity call": "inactive"}
{"Gene": "APC2", "PubChem SID": "SID160728113", "total luciferase, z-score": -0.216, "total luciferase, % of control": 77.6, "activity call": "inactive"}
{"Gene": "APC2", "PubChem SID": "SID160728114", "total luciferase, z-score": -0.734, "total luciferase, % of control": 67.3, "activity call": "inactive"}
{"Gene": "ARAP2", "PubChem SID": "SID160755497", "total luciferase, z-score": -0.559, "total luciferase, % of control": 70.8, "activity call": "inactive"}
{"Gene": "ARAP2", "PubChem SID": "SID160755498", "total luciferase, z-score": -1.15, "total luciferase, % of control": 59, "activity call": "inactive"}
{"Gene": "ARAP2", "PubChem SID": "SID160755499", "total luciferase, z-score": 0.0464, "total luciferase, % of control": 82.8, "activity call": "inactive"}
{"Gene": "SEC14L5", "PubChem SID": "SID160722891", "total luciferase, z-score": -0.142, "total luciferase, % of control": 79.1, "activity call": "inactive"}
{"Gene": "SEC14L5", "PubChem SID": "SID160722892", "total luciferase, z-score": 1.5, "total luciferase, % of control": 112, "activity call": "inactive"}
{"Gene": "SEC14L5", "PubChem SID": "SID160722894", "total luciferase, z-score": -0.611, "total luciferase, % of control": 69.7, "activity call": "inactive"}
{"Gene": "CELSR3", "PubChem SID": "SID160758743", "total luciferase, z-score": -0.0454, "total luciferase, % of control": 81, "activity call": "inactive"}
{"Gene": "CELSR3", "PubChem SID": "SID160758753", "total luciferase, z-score": 2.47, "total luciferase, % of control": 131, "activity call": "inactive"}
{"Gene": "CELSR3", "PubChem SID": "SID160758763", "total luciferase, z-score": 1.93, "total luciferase, % of control": 120, "activity call": "inactive"}

Reformatted: entries from further up
PLAUR [SID160714435]
- total luciferase, z-score: 2.94
- total luciferase, % of control: 140
- activity call: inactive

FOXQ1 [SID160754651]
- total luciferase, z-score: 0.269
- total luciferase, % of control: 87.2
- activity call: inactive

FOXQ1 [SID160754652]
- total luciferase, z-score: -0.424
- total luciferase, % of control: 73.5
- activity call: inactive

FOXQ1 [SID160754653]
- total luciferase, z-score: 1
- total luciferase, % of control: 102
- activity call: inactive

APC2 [SID160728112]
- total luciferase, z-score: 2.62
- total luciferase, % of control: 134
- activity call: inactive

Continued.
{"Gene": "LDHB", "PubChem SID": "SID160776560", "total luciferase, z-score": 1.14, "total luciferase, % of control": 105, "activity call": "inactive"}
{"Gene": "LDHB", "PubChem SID": "SID160776561", "total luciferase, z-score": -0.511, "total luciferase, % of control": 71.7, "activity call": "inactive"}
{"Gene": "LDHB", "PubChem SID": "SID160776562", "total luciferase, z-score": -0.707, "total luciferase, % of control": 67.8, "activity call": "inactive"}
{"Gene": "KTN1", "PubChem SID": "SID160776467", "total luciferase, z-score": 0.0365, "total luciferase, % of control": 82.6, "activity call": "inactive"}
{"Gene": "KTN1", "PubChem SID": "SID160776468", "total luciferase, z-score": 0.0955, "total luciferase, % of control": 83.8, "activity call": "inactive"}
{"Gene": "KTN1", "PubChem SID": "SID160776469", "total luciferase, z-score": -1.99, "total luciferase, % of control": 42.3, "activity call": "inactive"}
{"Gene": "UGGT2", "PubChem SID": "SID160744281", "total luciferase, z-score": -0.8, "total luciferase, % of control": 66, "activity call": "inactive"}
{"Gene": "UGGT2", "PubChem SID": "SID160744282", "total luciferase, z-score": 1.91, "total luciferase, % of control": 120, "activity call": "inactive"}
{"Gene": "UGGT2", "PubChem SID": "SID160744283", "total luciferase, z-score": -0.0682, "total luciferase, % of control": 80.5, "activity call": "inactive"}
{"Gene": "MRRF", "PubChem SID": "SID160754286", "total luciferase, z-score": -0.0723, "total luciferase, % of control": 80.4, "activity call": "inactive"}
{"Gene": "MRRF", "PubChem SID": "SID160754287", "total luciferase, z-score": 2.97, "total luciferase, % of control": 141, "activity call": "inactive"}
{"Gene": "MRRF", "PubChem SID": "SID160754288", "total luciferase, z-score": -1.17, "total luciferase, % of control": 58.6, "activity call": "inactive"}
{"Gene": "MEGF6", "PubChem SID": "SID160758805", "total luciferase, z-score": -0.893, "total luciferase, % of control": 64.1, "activity call": "inactive"}
{"Gene": "MEGF6", "PubChem SID": "SID160758815", "total luciferase, z-score": 0.252, "total luciferase, % of control": 86.9, "activity call": "inactive"}
{"Gene": "MEGF6", "PubChem SID": "SID160758827", "total luciferase, z-score": -2.03, "total luciferase, % of control": 41.4, "activity call": "inactive"}
{"Gene": "SUSD4", "PubChem SID": "SID160742840", "total luciferase, z-score": 1.52, "total luciferase, % of control": 112, "activity call": "inactive"}
{"Gene": "SUSD4", "PubChem SID": "SID160742841", "total luciferase, z-score": -0.0885, "total luciferase, % of control": 80.1, "activity call": "inactive"}
{"Gene": "SUSD4", "PubChem SID": "SID160742842", "total luciferase, z-score": 0.09, "total luciferase, % of control": 83.7, "activity call": "inactive"}
